Assay results reported in PMC8960663.

Molecular target: BRG1-mut (BRG1-K798R) (human)
Assay: co-IP; total cell extract (150 mM NaCl, 20 mM Hepes pH 7.4, 0.5% Triton-X100, 0.1% DOC) of C33A transfected with BRG1-wt or BRG1-mut; BRG1 antibody, hnRNPL and SAM68; immunoblot

binding: binds
B1: hnRNPL (protein, UniProt P14866 1-589)
chain: MSRRLLPRAEKRRRRLEQRQQPDEQRRRSGAMVKMAAAGGGGGGGRYYGGGSEGGRAPKRLKTDNAGDQHGGGGGGGGGAGAAGGGGGGENYDDPHKTPASPVVHIRGLIDGVVEADLVEALQEFGPISYVVVMPKKRQALVEFEDVLGACNAVNYAADNQIYIAGHPAFVNYSTSQKISRPGDSDDSRSVNSVLLFTILNPIYSITTDVLYTICNPCGPVQRIVIFRKNGVQAMVEFDSVQSAQRAKASLNGADIYSGCCTLKIEYAKPTRLNVFKNDQDTWDYTNPNLSGQGDPGSNPNKRQRQPPLLGDHPAEYGGPHGGYHSHYHDEGYGPPPPHYEGRRMGPPVGGHRRGPSRYGPQYGHPPPPPPPPEYGPHADSPVLMVYGLDQSKMNCDRVFNVFCLYGNVEKVKFMKSKPGAAMVEMADGYAVDRAITHLNNNFMFGQKLNVCVSKQPAIMPGQSYGLEDGSCSYKDFSESRNNRFSTPEQAAKNRIQHPSNVLHFFNAPLEVTEENFFEICDELGVKRPSSVKVFSGKSERSSSGLLEWESKSDALETLGFLNHYQMKNPNGPYPYTLKLCFSTAQHAS

No constants are given. Whether binding was seen depends on the method and setting. Binding seen in cells or lysates may run through a third protein. A result given as binding can be weak or reduced; the word gives no strength.
